Counter-ions that a name gives are not always drawn. Some of the results follow. Many values rest on one well or one pass, so single values are uncertain.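 Primary human fetal astrocytes engulfed labelled rat cortical synaptosomes, measured as a red/green ratio corrected for calcein live-cell signal and scaled to the plate median. Toxicity meant calcein falling over 30%; decreased phagocytosis meant below 70% of median above 5 µM.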
Key:
Human fetal astrocytes [1] = assay: loss of total cells relative to no-compound high-control median (toxicity); higher = more toxic (fewer cells); conditions: 24 h
Human fetal astrocytes [2] = assay: synaptosome phagocytosis (pHrodo/calcein intensity ratio) relative to plate median of data wells; higher = more phagocytosis; conditions: 24 h

| Compound | loss of total cells (Human fetal astrocytes [1]; 1.39 µM) [%] | loss of total cells (Human fetal astrocytes [1]; 2.78 µM) [%] | loss of total cells (Human fetal astrocytes [1]; 5.56 µM) [%] | loss of total cells (Human fetal astrocytes [1]; 11.11 µM) [%] | loss of total cells (Human fetal astrocytes [1]; 22.22 µM) [%] | synaptosome phagocytosis (Human fetal astrocytes [2]; 1.39 µM) [%] | synaptosome phagocytosis (Human fetal astrocytes [2]; 2.78 µM) [%] | synaptosome phagocytosis (Human fetal astrocytes [2]; 5.56 µM) [%] | synaptosome phagocytosis (Human fetal astrocytes [2]; 11.11 µM) [%] | synaptosome phagocytosis (Human fetal astrocytes [2]; 22.22 µM) [%] |
| --- | --- | --- | --- | --- | --- | --- | --- | --- | --- | --- |
| CC(=O)[C@H]1CC[C@H]2[C@@H]3CC[C@H]4C[C@H](O)CC[C@]4(C)[C@H]3C(=O)C[C@]12C [5alpha-Pregnan-3alpha-ol-11,20-dione] | -6.2 | -5 | 1.4 | -1.9 | -1.9 | 126 | 98.2 | 122 | 108 | 147 |
| NC(CP(=O)(O)O)C(=O)O (racemic) [(±)-2-Amino-3-phosphonopropionic acid] | -13.9 | 2.7 | -18.9 | -21.1 | -3.4 | 82.7 | 73.5 | 66.3 | 112 | 117 |
| COc1ccc2c(c1)[C@]13CCCC[C@@H]1[C@H](C2)N(C)CC3 [Dextromethorphan hydrobromide monohydrate] | 2.1 | -4.3 | -2.5 | 3.1 | 10.4 | 104 | 69.7 | 90.9 | 89.7 | 72.3 |
| O=C[C@H](Cl)[C@@H](O)[C@H](O)[C@H](O)CO [2-Chloro-2-deoxy-D-glucose] | -13 | -20.5 | 9.9 | -20.2 | -2.4 | 116 | 83.8 | 104 | 126 | 122 |
| CN[C@@H]1C[C@@H](c2ccc(Cl)c(Cl)c2)c2ccccc21 [Indatraline hydrochloride] | -19.4 | 7.7 | 23 | 20 | 18.7 | 79.5 | 131 | 117 | 69.2 | 70.3 |
| C[C@]12CC[C@@H](O)C[C@@H]1CC[C@@H]1[C@@H]2CC[C@]2(C)C(=O)CC[C@@H]12 [Androsterone] | 11.4 | 3 | 4.1 | -6.7 | -25.9 | 89.2 | 92.8 | 93 | 107 | 68.2 |
| C[C@@H]1O[C@@H](O[C@H]2C[C@@H](O)[C@]3(CO)[C@H]4[C@H](O)C[C@]5(C)[C@@H](C6=CC(=O)OC6)CC[C@]5(O)[C@@H]4CC[C@]3(O)C2)[C@H](O)[C@H](O)[C@H]1O [Ouabain] | 10.9 | 31.2 | 34.3 | 40 | 11.2 | 104 | 55.3 | 29.6 | 13.2 | 44 |
| CC(=O)[C@H]1CC[C@H]2[C@@H]3CC[C@H]4C[C@H](O)CC[C@]4(C)[C@H]3CC[C@]12C [5alpha-Pregnan-3alpha-ol-20-one] | 0.3 | -27.8 | 17.4 | 24.1 | -27.2 | 86.1 | 110 | 106 | 125 | 86.3 |
| CC(=O)O[C@H]1C[C@@H]2CC[C@@H]3[C@H](CC[C@@]4(C)[C@H]3C[C@H]([N+]3(C)CCCCC3)[C@@H]4OC(C)=O)[C@@]2(C)C[C@@H]1[N+]1(C)CCCCC1 [Pancuronium bromide] | -3.3 | -10.4 | -8 | -15.2 | -3.7 | 103 | 95.8 | 105 | 110 | 104 |
| COc1cc(C(O)CN)ccc1O (racemic) [(±)-Normetanephrine hydrochloride] | -13.7 | -9.5 | -8 | 11.4 | 6.5 | 93.7 | 98.1 | 118 | 110 | 122 |

Reference: the supplement of paper PMC10689618
